This is one part of the list.
Key:
Experiment in all cases: log2 fold change, soluble protein after heating vs DMSO (PISA); higher = thermal stabilisation; K562 lysate, 10 uM; active = over 0.2 and 3.5 SD of the protein, either way, in both replicates (recomputed)
nilotinib = compound: Cc1cn(-c2cc(NC(=O)c3ccc(C)c(Nc4nccc(-c5cccnc5)n4)c3)cc(C(F)(F)F)c2)cn1 [nilotinib]
Outline: (§1)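 To prepare the extract, K562 pellets were dounce-homogenised in PBS pH 7.4 with 1 mM MgCl2, giving crude material at 1 mg/mL protein. This was treated with 10 μM compound for 30 min, then heated in aliquots for 3 min over 48°C-58°C before pooling and addition of NP-40 to 0.5% at 4°C. Centrifugation at 21,000xg for 90 min left soluble protein in the supernatant, which TMTpro 16plex LC-MS/MS quantified with equalised channel sums. Results are log-two fold changes in thermal stability compared with solvent controls, from duplicates.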

Sequences of proteins named here, by UniProt entry; tags and fusion partners are left off. A change or cut given only in a name is not applied to a line headed by its entry.
UniProt P62195, whole entry, looked up: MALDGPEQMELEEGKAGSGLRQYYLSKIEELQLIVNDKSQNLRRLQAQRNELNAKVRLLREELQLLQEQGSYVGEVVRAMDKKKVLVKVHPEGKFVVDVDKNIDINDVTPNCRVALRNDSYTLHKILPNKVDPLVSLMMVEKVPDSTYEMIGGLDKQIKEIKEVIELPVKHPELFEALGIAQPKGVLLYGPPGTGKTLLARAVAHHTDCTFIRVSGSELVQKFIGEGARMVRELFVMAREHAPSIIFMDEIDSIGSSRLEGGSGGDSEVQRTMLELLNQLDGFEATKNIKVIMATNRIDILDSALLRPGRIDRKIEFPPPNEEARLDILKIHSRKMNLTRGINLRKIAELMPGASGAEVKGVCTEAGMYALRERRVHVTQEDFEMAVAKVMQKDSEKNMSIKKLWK
UniProt Q14671: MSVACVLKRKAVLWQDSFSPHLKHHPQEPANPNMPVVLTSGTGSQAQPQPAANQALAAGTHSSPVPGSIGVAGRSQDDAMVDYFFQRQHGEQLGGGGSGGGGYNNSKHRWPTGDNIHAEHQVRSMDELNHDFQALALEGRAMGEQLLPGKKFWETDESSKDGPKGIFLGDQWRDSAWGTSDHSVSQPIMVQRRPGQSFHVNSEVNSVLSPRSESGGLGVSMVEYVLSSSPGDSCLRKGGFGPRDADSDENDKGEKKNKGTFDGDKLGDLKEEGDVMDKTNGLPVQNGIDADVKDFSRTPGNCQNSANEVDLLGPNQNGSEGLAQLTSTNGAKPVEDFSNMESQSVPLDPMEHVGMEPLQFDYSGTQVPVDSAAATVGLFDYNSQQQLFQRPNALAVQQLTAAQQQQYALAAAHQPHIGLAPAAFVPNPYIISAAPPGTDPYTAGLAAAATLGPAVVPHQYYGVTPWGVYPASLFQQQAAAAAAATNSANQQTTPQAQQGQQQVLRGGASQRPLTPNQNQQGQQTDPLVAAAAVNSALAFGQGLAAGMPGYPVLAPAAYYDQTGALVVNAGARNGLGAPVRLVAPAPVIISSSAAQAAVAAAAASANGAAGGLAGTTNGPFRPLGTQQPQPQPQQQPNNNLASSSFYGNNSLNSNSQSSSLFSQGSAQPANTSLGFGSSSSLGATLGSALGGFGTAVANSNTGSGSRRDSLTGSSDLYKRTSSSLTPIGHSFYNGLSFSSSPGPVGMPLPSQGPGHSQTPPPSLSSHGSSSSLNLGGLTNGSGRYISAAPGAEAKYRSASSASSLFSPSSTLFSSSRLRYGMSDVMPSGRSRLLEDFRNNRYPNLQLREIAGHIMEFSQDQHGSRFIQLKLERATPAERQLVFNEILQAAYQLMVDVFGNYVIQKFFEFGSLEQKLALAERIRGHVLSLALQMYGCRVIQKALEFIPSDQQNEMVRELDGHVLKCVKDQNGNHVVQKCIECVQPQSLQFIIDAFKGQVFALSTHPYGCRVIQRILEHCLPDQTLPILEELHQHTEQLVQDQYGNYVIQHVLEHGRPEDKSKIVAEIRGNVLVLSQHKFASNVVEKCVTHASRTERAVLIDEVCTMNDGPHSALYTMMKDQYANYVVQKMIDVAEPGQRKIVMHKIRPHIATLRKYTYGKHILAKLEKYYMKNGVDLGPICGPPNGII
UniProt P28070, whole entry, looked up: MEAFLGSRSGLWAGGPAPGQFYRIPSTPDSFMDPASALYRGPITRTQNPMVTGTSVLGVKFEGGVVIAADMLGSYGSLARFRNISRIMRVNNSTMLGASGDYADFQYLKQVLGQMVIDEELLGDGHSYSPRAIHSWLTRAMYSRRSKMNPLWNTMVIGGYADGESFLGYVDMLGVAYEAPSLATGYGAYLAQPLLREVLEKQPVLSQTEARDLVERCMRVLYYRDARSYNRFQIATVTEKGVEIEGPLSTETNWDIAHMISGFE
UniProt P07602: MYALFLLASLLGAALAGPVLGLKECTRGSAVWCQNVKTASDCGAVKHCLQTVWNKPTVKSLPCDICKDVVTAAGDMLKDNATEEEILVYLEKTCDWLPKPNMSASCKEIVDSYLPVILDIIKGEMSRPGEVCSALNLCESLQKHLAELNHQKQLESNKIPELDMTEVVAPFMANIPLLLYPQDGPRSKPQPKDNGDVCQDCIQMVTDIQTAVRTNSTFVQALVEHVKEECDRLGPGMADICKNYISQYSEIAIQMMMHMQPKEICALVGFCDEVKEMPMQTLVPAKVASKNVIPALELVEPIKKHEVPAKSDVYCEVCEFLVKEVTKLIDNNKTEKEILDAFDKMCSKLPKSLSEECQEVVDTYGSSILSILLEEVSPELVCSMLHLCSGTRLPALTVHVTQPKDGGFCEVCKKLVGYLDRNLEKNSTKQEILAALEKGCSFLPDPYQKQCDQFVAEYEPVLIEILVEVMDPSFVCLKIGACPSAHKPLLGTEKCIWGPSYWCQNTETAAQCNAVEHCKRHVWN
UniProt O00231, whole entry, looked up: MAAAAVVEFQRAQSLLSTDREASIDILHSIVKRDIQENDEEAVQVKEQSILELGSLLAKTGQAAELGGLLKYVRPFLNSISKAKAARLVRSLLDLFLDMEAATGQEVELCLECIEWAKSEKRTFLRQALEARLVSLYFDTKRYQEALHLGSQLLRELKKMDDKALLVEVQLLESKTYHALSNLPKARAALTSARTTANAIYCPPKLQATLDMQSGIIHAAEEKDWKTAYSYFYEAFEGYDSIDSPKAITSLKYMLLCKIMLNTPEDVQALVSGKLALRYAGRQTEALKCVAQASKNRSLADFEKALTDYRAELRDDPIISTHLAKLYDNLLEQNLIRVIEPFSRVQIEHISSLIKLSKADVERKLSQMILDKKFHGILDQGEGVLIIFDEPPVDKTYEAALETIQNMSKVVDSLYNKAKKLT
UniProt Q9P2W1: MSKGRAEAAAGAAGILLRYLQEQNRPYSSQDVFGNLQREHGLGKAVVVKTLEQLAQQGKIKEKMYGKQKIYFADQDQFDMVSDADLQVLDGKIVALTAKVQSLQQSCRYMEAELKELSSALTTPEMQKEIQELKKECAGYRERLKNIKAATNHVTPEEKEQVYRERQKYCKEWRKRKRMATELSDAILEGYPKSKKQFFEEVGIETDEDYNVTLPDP
UniProt Q9UKA9: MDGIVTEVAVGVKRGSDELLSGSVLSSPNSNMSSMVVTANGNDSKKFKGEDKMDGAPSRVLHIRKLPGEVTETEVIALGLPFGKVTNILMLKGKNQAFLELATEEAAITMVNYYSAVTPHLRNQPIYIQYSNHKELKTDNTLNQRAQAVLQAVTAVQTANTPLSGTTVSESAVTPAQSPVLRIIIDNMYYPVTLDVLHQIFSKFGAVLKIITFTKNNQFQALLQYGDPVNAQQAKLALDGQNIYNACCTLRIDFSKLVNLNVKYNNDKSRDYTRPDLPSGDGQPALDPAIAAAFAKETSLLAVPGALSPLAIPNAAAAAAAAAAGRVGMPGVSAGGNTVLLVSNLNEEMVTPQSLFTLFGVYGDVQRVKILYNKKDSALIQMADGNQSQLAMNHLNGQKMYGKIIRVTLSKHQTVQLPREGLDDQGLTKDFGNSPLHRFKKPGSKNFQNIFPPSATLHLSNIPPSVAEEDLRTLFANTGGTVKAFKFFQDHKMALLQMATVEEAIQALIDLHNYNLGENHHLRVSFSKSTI
UniProt P79522: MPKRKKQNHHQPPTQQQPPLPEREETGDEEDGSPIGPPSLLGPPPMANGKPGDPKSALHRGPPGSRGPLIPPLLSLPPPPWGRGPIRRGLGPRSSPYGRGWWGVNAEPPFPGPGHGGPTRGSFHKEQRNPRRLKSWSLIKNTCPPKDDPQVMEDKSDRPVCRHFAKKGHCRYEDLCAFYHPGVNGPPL
UniProt P49720: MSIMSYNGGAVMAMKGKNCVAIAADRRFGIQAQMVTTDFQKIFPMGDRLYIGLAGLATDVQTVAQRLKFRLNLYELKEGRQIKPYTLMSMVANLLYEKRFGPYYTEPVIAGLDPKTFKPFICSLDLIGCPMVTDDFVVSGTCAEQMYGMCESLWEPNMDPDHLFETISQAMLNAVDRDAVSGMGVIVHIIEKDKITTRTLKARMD
UniProt Q3MIT2: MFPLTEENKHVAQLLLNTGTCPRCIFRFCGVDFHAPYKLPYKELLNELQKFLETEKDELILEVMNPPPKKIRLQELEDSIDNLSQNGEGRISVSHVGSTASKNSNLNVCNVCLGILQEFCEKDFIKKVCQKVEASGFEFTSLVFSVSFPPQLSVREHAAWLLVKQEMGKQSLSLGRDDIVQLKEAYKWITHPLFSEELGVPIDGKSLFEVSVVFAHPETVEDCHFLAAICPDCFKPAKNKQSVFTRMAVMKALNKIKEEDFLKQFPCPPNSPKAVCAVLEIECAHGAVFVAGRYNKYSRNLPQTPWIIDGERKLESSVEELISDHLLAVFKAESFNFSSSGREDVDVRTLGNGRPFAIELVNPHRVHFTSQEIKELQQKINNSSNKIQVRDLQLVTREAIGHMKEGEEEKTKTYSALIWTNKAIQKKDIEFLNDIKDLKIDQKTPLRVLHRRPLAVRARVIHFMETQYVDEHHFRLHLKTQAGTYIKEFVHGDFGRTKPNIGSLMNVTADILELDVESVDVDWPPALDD
UniProt P61289: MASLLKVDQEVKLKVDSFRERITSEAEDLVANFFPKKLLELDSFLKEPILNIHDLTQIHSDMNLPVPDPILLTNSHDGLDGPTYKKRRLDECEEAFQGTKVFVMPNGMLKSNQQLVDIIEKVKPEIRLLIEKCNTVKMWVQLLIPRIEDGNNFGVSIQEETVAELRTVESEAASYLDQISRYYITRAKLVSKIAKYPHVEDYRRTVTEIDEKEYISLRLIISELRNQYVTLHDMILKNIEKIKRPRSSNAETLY
UniProt Q9UHX1: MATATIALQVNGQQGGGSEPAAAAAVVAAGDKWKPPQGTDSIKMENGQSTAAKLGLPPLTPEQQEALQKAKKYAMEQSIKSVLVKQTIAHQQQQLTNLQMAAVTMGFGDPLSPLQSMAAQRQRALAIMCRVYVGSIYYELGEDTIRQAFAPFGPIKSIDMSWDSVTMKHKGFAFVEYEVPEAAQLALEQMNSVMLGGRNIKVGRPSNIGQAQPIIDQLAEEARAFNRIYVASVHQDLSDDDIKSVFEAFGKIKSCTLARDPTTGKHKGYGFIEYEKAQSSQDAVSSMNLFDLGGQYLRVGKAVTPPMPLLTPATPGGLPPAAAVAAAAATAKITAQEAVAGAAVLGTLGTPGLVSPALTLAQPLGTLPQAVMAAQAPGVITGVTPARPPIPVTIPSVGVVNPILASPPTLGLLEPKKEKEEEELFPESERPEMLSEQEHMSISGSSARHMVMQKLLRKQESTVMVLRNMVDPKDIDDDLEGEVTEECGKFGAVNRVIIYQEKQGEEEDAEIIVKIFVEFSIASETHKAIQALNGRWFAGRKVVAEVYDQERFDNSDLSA
UniProt Q15008: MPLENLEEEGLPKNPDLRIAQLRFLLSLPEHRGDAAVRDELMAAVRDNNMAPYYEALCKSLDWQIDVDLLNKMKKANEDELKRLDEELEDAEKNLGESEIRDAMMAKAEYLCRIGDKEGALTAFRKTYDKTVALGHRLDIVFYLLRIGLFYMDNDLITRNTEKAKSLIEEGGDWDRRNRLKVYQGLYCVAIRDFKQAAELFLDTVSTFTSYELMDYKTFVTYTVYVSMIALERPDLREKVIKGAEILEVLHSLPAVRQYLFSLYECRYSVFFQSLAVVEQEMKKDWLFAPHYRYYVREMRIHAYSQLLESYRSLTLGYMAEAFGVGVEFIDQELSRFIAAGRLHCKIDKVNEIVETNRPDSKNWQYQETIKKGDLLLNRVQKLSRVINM
UniProt O14818: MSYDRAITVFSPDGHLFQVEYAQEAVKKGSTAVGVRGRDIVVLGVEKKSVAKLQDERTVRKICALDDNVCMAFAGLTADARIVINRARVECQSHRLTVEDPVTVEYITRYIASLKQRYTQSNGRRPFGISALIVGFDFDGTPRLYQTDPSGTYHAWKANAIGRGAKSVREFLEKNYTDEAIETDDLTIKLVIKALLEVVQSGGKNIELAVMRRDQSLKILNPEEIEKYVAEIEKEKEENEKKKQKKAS
UniProt Q8WUK0: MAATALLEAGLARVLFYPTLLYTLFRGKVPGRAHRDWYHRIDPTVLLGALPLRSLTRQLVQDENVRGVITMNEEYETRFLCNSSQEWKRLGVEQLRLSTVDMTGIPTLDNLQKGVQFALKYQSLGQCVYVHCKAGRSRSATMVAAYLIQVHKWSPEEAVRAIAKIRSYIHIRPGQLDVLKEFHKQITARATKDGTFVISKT
UniProt P35998: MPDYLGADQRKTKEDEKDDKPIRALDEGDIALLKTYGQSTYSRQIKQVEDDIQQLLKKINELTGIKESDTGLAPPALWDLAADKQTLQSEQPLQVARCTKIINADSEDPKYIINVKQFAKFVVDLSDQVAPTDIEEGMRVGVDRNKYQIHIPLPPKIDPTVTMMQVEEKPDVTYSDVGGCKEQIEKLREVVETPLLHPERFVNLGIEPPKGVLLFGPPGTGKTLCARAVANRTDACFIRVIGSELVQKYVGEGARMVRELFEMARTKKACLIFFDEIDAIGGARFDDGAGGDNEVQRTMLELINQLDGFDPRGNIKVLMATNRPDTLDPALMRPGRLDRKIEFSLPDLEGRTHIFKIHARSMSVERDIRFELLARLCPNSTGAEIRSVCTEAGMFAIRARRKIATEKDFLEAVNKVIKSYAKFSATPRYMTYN

[1] = compound: Cc1nc(Nc2n[nH]c3c2CN(C(=O)N[C@H](CN(C)C)c2ccccc2)C3(C)C)c2sccc2n1
Outline: as §1

dasatinib = compound: Cc1nc(Nc2ncc(C(=O)Nc3c(C)cccc3Cl)s2)cc(N2CCN(CCO)CC2)n1 [dasatinib]
Outline: as §1

[2] = compound: Cc1ncc(-c2ccnc(Nc3ccc(S(C)(=O)=O)cc3)n2)n1C(C)C
Outline: as §1

[3] = compound: Cn1cc(-c2ccc3c(c2)CCN3C(=O)Cc2cccc(C(F)(F)F)c2)c2c(N)ncnc21
Outline: as §1

quisinostat = compound: Cn1cc(CNCC2CCN(c3ncc(C(=O)NO)cn3)CC2)c2ccccc21 [quisinostat]
Outline: as §1

tipifarnib = compound: Cn1cncc1[C@@](N)(c1ccc(Cl)cc1)c1ccc2c(c1)c(-c1cccc(Cl)c1)cc(=O)n2C [tipifarnib]
Outline: as §1

[4] = compound: NC(=O)Nc1cc(-c2cccc(F)c2)sc1C(=O)N[C@H]1CCCNC1
Outline: as §1

[5] = compound: NC(=O)c1cnc(N[C@@H]2CCCC[C@@H]2N)nc1Nc1cccc(-n2nccn2)c1
Outline: as §1

[6] = compound: NC1(c2ccc(-c3nc4ccn5c(=O)[nH]nc5c4cc3-c3ccccc3)cc2)CCC1
Outline: as §1

Measured: log2 fold change

PSMA4 (UniProt P25789)
inactive: nilotinib 0.01 | [1] 0.009 | dasatinib -0.003 | [2] 0.016 | [3] 0.011 | quisinostat -0.024 | tipifarnib 0.003 | [4] -0.004 | [5] -0.004 | [6] -0.006

PSMF1 (UniProt Q92530)
inactive: nilotinib 0.012 | [1] -0.033 | dasatinib 0.013 | [2] 0 | [3] -0.044 | quisinostat -0.134 | tipifarnib -0.057 | [4] 0.01 | [5] -0.032 | [6] -0.032

PSMC5 (UniProt P62195)
inactive: nilotinib -0.004 | [1] 0 | dasatinib -0.01 | [2] 0.001 | [3] 0.007 | quisinostat -0.02 | tipifarnib 0.018 | [4] 0.014 | [5] -0.01 | [6] -0.006

PTK2 (UniProt Q05397)
inactive: nilotinib -0.032 | [1] 0.235 | dasatinib 0.083 | [2] 0.078 | [3] 0.18 | quisinostat -0.038 | tipifarnib -0.046 | [4] 0.373 | [5] 0.081 | [6] 0.021

PUM1 isoform 3 (UniProt Q14671)
inactive: nilotinib -0.072 | [1] -0.012 | dasatinib -0.027 | [2] 0.03 | [3] 0.016 | quisinostat 0.01 | tipifarnib -0.057 | [4] 0.004 | [5] -0.021 | [6] 0.028

PSMB4 (UniProt P28070)
inactive: nilotinib 0.019 | [1] 0 | dasatinib -0.005 | [2] 0.038 | [3] -0.007 | quisinostat -0.031 | tipifarnib -0.001 | [4] -0.001 | [5] -0.028 | [6] -0.029

PRRC1 (UniProt Q96M27)
inactive: nilotinib 0.02 | [1] 0.019 | dasatinib -0.013 | [2] -0.016 | [3] -0.043 | quisinostat 0.035 | tipifarnib -0.023 | [4] -0.023 | [5] -0.008 | [6] -0.016

PSAP isoform 3 (UniProt P07602)
inactive: nilotinib -0.04 | [1] -0.012 | dasatinib 0.005 | [2] -0.062 | [3] -0.009 | quisinostat 0.023 | tipifarnib 0.033 | [4] -0.018 | [5] -0.02 | [6] 0.033

PSMD11 (UniProt O00231)
inactive: nilotinib 0.017 | [1] -0.016 | dasatinib -0.013 | [2] 0.01 | [3] 0.029 | quisinostat 0.094 | tipifarnib 0.001 | [4] 0.013 | [5] -0.002 | [6] 0.023

PSMC3IP (UniProt Q9P2W1)
inactive: nilotinib 0.019 | [1] 0.038 | dasatinib -0.008 | [2] 0 | [3] 0.05 | quisinostat -0.018 | tipifarnib 0.056 | [4] 0.027 | [5] 0.003 | [6] 0.02

PTBP2 isoform 2 (UniProt Q9UKA9)
inactive: nilotinib 0.013 | [1] -0.223 | dasatinib 0.157 | [2] -0.007 | [3] 0.121 | quisinostat 0.038 | tipifarnib 0 | [4] -0.042 | [5] -0.071 | [6] 0

PRR3 (UniProt P79522)
inactive: nilotinib -0.107 | [1] -0.085 | [2] -0.074 | quisinostat -0.12 | tipifarnib 0.077 | [4] 0.095 | [5] -0.057

PSMB3 (UniProt P49720)
inactive: nilotinib 0.042 | [1] -0.011 | dasatinib 0.003 | [2] 0.01 | [3] 0.002 | quisinostat 0.012 | tipifarnib -0.028 | [4] -0.023 | [5] -0.007 | [6] -0.006

PUDP isoform 4 (UniProt Q08623)
inactive: nilotinib 0.017 | [1] -0.01 | dasatinib 0.009 | [2] 0.036 | [3] -0.007 | quisinostat -0.014 | tipifarnib -0.005 | [4] -0.012 | [5] 0.02 | [6] -0.006

PUS10 (UniProt Q3MIT2)
inactive: nilotinib -0.041 | [1] -0.037 | dasatinib 0.002 | [2] -0.023 | [3] 0.051 | quisinostat -0.027 | tipifarnib 0.071 | [4] 0.022 | [5] -0.025 | [6] -0.022

PTPRA (UniProt P18433)
inactive: nilotinib -0.016 | [1] 0.029 | dasatinib -0.039 | [2] -0.012 | [3] 0.04 | quisinostat -0.005 | tipifarnib 0 | [4] 0.03 | [5] -0.009 | [6] -0.001

PSME3 isoform 2 (UniProt P61289)
inactive: nilotinib -0.021 | [1] 0.017 | dasatinib 0.017 | [2] -0.018 | [3] 0.004 | quisinostat 0.034 | tipifarnib 0.024 | [4] 0.005 | [5] 0.008 | [6] 0.033

PRXL2A (UniProt Q9BRX8)
inactive: nilotinib 0.116 | [1] -0.051 | dasatinib -0.012 | [2] 0.042 | [3] -0.023 | tipifarnib -0.16 | [6] -0.122

PUF60 isoform 2 (UniProt Q9UHX1)
inactive: nilotinib -0.011 | [1] -0.027 | [2] 0.05 | quisinostat 0.013 | tipifarnib 0.023 | [4] 0.017 | [5] -0.016 | [6] -0.184

PSMD6 (UniProt Q15008)
inactive: nilotinib -0.024 | [1] 0.079 | [2] 0.221 | quisinostat 0.072 | tipifarnib -0.094 | [4] -0.012 | [5] 0.033

PSMA7 (UniProt O14818)
inactive: nilotinib 0.02 | [1] -0.005 | dasatinib 0.043 | [2] 0.009 | [3] -0.036 | quisinostat 0.036 | tipifarnib 0.015 | [4] -0.008 | [5] -0.001 | [6] 0.029

PSMC4 (UniProt P43686)
inactive: nilotinib 0.001 | [1] 0.001 | dasatinib -0.024 | [2] 0.008 | [3] 0.005 | quisinostat -0.012 | tipifarnib 0.001 | [4] 0.02 | [5] 0.003 | [6] -0.009

PTCD3 (UniProt Q96EY7)
inactive: nilotinib -0.039 | [1] -0.007 | dasatinib 0.018 | [2] -0.006 | [3] 0.055 | quisinostat -0.04 | tipifarnib 0.002 | [4] -0.018 | [5] 0.016 | [6] 0.027

PTPRB isoform 3 (UniProt P23467)
inactive: nilotinib -0.269 | [1] 0.145 | dasatinib -0.367 | [2] 0.062 | [3] -0.01 | tipifarnib -0.036 | [5] 0.329

PTGES3 (UniProt Q15185)
inactive: nilotinib 0.034 | [1] 0.003 | dasatinib 0.008 | [2] 0.021 | [3] -0.011 | quisinostat -0.011 | tipifarnib -0.021 | [4] -0.003 | [5] -0.026 | [6] 0.03

PVR (UniProt P15151)
inactive: nilotinib -0.052 | [1] 0.017 | dasatinib 0.187 | [2] 0.06 | [3] -0.182 | quisinostat 0.036 | tipifarnib -0.033 | [4] 0.006 | [5] 0.036 | [6] 0.022

PTPRJ (UniProt Q12913)
inactive: nilotinib -0.053 | [1] -0.025 | [2] 0.093 | quisinostat 0.019 | tipifarnib -0.077 | [4] -0.062 | [5] -0.041 | [6] -0.058

Random excerpt: two entries already listed, in no set order.
PTGES3 (UniProt Q15185)
inactive: nilotinib 0.034 | [1] 0.003 | dasatinib 0.008 | [2] 0.021 | [3] -0.011 | quisinostat -0.011 | tipifarnib -0.021 | [4] -0.003 | [5] -0.026 | [6] 0.03

PTPRB isoform 3 (UniProt P23467)
inactive: nilotinib -0.269 | [1] 0.145 | dasatinib -0.367 | [2] 0.062 | [3] -0.01 | tipifarnib -0.036 | [5] 0.329

(listing goes on)

PTPN9 (UniProt P43378)
inactive: nilotinib -0.189 | [1] 0.068 | dasatinib -0.008 | [2] -0.058 | [3] -0.069 | quisinostat 0.028 | tipifarnib 0.015 | [4] 0.05 | [5] 0.056 | [6] 0.006

PSAT1 (UniProt Q9Y617)
inactive: nilotinib 0.016 | [1] 0.025 | dasatinib 0.025 | [2] 0.035 | [3] -0.023 | quisinostat 0.032 | tipifarnib -0.009 | [4] -0.03 | [5] 0.018 | [6] 0.012

PTPMT1 (UniProt Q8WUK0)
inactive: nilotinib 0.037 | [1] 0.147 | dasatinib -0.055 | [2] -0.124 | [3] 0.056 | quisinostat -0.037 | tipifarnib -0.109 | [4] 0.174 | [5] -0.01 | [6] -0.056

PSMC2 (UniProt P35998)
inactive: nilotinib 0.009 | [1] 0.011 | dasatinib 0.053 | [2] 0.01 | [3] 0.054 | quisinostat 0.003 | tipifarnib 0.024 | [4] 0.021 | [5] 0.007 | [6] -0.011

From the supplement of paper PMC10849652
